Results on one compound are retold here after patent publication US20080109040A1, “METHOD OF TREATING ARRHYTHMIAS” (priority 2002, published 2008).

The data set concerns guinea pig ventricular myocytes. The data set can be described thus: Action potential duration, EADs and triggered activity in guinea pig ventricular myocytes. The following applies: with and without ATX-II.

Structures are written as SMILES.

For `Cc1cccc(CCN2CCC(C(=O)c3ccc(NS(C)(=O)=O)cc3)CC2)n1` [E-4031, reference compound], the “Induction of EADs” value is on record as “induced EADs in the presence, but not in the absence, of ATX-II”.
